Reference: the supplement of paper PMC7666118
This is one part of the list.

The chains behind the UniProt entries cited, without tags or fusion partners. Where a name states a change or a piece, a line headed by the entry shows the natural chain unless it says otherwise.
UniProt P04792, whole entry: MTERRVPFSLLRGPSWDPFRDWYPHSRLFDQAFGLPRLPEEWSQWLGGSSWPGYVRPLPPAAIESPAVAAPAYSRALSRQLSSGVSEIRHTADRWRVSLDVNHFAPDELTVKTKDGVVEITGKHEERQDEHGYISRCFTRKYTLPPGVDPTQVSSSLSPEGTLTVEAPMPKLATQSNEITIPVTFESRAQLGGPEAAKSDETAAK
UniProt O14979: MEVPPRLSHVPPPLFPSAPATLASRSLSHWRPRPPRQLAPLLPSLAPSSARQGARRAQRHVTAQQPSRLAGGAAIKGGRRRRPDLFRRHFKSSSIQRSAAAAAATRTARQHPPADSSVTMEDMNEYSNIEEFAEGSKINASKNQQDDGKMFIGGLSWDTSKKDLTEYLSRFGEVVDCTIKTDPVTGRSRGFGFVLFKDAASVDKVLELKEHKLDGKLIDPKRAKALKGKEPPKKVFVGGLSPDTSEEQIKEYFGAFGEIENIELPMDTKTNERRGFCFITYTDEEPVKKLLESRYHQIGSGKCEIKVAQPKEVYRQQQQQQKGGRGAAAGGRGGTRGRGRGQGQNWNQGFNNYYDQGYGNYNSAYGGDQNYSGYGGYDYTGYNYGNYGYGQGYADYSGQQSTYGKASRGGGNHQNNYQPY
UniProt Q9H4A5: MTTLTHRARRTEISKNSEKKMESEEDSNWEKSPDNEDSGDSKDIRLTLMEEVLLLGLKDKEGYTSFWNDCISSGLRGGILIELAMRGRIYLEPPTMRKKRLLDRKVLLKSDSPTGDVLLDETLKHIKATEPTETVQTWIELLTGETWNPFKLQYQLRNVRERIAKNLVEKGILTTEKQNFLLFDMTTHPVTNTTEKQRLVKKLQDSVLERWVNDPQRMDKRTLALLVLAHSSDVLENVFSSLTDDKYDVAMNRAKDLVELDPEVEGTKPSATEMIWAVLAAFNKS
UniProt Q13098: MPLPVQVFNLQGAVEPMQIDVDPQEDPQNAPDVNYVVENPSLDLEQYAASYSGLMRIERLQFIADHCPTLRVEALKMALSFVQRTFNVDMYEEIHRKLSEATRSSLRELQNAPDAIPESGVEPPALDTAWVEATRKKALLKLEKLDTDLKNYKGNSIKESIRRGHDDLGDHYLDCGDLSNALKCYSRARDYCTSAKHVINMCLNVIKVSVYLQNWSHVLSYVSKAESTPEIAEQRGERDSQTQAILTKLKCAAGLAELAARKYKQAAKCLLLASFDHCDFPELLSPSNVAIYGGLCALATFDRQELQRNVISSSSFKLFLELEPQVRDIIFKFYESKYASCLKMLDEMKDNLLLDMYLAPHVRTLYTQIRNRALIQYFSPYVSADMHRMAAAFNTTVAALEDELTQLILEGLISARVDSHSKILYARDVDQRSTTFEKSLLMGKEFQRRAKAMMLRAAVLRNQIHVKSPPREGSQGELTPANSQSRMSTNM
UniProt P08397: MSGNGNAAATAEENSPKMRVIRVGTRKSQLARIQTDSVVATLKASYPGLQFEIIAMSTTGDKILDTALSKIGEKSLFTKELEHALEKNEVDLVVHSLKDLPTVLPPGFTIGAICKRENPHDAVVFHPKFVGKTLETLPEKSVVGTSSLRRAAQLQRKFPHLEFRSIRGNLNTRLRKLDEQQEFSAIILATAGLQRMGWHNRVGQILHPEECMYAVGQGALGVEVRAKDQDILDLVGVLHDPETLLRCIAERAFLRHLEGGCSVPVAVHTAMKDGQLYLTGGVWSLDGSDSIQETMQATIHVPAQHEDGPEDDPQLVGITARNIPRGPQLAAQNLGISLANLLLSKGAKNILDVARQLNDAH
UniProt Q13322: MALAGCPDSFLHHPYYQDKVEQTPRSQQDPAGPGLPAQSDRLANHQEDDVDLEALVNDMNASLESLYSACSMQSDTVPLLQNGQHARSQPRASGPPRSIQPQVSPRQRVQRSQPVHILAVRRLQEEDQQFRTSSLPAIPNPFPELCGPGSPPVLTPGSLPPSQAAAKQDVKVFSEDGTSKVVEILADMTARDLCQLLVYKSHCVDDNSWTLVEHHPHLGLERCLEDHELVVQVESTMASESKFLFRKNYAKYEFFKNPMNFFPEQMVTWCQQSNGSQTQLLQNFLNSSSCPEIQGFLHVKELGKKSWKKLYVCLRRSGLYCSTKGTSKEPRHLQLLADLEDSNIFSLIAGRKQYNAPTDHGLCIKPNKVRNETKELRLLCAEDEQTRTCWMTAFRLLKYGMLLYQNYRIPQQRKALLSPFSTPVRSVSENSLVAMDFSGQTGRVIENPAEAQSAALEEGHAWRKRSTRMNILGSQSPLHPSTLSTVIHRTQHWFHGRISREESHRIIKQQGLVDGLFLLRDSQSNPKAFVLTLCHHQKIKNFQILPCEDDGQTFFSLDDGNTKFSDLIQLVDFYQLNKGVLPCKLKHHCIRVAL
UniProt P52655, whole entry: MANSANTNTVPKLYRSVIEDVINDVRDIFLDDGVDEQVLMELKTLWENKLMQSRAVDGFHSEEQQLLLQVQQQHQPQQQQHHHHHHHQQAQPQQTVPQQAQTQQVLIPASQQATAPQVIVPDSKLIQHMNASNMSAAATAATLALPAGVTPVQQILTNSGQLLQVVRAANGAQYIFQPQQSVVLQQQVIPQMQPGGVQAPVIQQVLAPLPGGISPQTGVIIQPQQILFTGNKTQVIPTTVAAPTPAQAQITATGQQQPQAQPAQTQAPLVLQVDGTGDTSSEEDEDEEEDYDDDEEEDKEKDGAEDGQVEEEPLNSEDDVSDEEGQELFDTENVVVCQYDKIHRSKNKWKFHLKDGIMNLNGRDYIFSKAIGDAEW
UniProt Q9NVN8: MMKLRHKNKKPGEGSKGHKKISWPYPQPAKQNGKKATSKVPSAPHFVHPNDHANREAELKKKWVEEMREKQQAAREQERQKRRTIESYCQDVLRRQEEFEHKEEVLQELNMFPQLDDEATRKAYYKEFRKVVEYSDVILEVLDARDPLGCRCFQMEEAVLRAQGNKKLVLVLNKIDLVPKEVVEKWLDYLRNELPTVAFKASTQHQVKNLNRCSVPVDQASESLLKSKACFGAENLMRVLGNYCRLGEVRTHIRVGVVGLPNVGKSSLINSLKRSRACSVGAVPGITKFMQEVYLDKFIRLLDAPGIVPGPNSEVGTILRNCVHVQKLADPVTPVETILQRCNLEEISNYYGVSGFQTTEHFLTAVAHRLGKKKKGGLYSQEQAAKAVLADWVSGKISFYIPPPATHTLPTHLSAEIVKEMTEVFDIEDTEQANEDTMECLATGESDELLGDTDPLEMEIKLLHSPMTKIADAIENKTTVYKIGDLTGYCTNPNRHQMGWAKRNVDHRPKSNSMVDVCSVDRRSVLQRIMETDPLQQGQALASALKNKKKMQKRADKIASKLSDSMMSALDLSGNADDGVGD

compound: COc1ccc(Cn2ccc3cc(C)c(C(=O)NO)cc32)cc1; assay: dose-dependent thermal stabilisation call (2D-TPP, DLPTP, 10% FDR) (binary (1 = stabilised)); higher = stabilised by the compound; settings: system: HL-60 intact cells; concentration range 0.04-10 µM
Protocol: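 2D thermal proteome profiling in intact HL-60 cells treated with BRD-3811 (0, 0.04, 0.29, 2, 10 uM) for 90 min at 37 C, then heated 3 min at one of 12 temperatures (42-63.9 C). Soluble protein was quantified by TMT10 MS. The value is the DLPTP call of the paper: dose-dependent thermal stabilisation over all temperatures at 10% FDR (F-test of a dose-response against a flat model); one experiment, one call per tested protein.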

Row | Target | dose-dependent thermal stabilisation call
1 | HSPB1 (UniProt P04792) | inactive: 0
2 | HNRPDL (UniProt O14979) | inactive: 0
3 | GOLPH3L (UniProt Q9H4A5) | inactive: 0
4 | GPS1 (UniProt Q13098) | inactive: 0
5 | HMBS (UniProt P08397) | inactive: 0
6 | GRB10 (UniProt Q13322) | inactive: 0
7 | HCG_21078 | inactive: 0
8 | GTF2A1 (UniProt P52655) | inactive: 0
9 | GNL3L (UniProt Q9NVN8) | inactive: 0

Some of the entries so far, as tab-separated lines.
Row	Target	dose-dependent thermal stabilisation call
1	HSPB1 (UniProt P04792)	inactive: 0
2	HNRPDL (UniProt O14979)	inactive: 0
